Test system: AD rats
Experiment: Chronic intravenous infusion of aggregated human amylin in AD rats
Assay type: in vivo, rat

Substance: human amylin
- amylin-positive neurons in the brain (AD rats intravenously infused with human amylin): Patchy areas of amylin-positive neurons were found
- amylin and hypoxia markers in the brain vasculature (AD rats, 60 μg/kg intravenously every 3rd day for 2 months, vs AD control rats): accumulated amylin and hypoxia markers in the brain vasculature

— US20220401428A1, “Method for Treatment of Alzheimer's Disease” (University of Kentucky Research Foundation, priority 2019, published 2022)
